Reference: paper PMC4598156
These are yes or no findings as the source states them, for the method shown. Binding seen in cells or lysates may run through a third protein. Some entries that bind do so weakly or less than the wild type.

By UniProt entry, the sequences of proteins in these tests, tags left out. Residues count along the entry.
UniProt Q63495, residues 23-402: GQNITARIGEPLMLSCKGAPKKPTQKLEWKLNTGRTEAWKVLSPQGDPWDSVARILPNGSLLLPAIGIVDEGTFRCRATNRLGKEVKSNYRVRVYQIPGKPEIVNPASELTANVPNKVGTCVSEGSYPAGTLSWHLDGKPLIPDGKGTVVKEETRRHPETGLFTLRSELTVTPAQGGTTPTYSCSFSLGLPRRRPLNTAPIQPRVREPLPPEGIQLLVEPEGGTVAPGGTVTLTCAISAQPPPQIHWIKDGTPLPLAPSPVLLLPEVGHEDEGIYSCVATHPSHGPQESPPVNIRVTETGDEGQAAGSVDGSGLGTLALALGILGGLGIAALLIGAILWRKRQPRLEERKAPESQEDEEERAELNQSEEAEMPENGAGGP

Biological target: T1, mitochondrial transcription factor A (TFAM) (rat (endogenous in Sprague Dawley rat heart)) (UniProt Q91ZW1)
T1 sequence: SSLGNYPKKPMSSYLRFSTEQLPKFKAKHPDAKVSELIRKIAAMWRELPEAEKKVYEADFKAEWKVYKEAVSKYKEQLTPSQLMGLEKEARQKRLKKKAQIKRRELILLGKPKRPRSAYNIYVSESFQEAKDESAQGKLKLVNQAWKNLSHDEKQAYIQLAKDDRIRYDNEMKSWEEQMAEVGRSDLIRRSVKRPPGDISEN
Test: co-IP; 0.5 mg total heart tissue lysate precipitated with anti-TFAM at 4°C overnight, protein A/G plus agarose, washed in cold PBS, Western blot for RAGE; hearts of sham rats, septic rats and septic rats given Mito-Vit-E

receptor of advance glycation end products (RAGE) (from UniProt Q63495 23-402)
binding: binds
